Assay results: US20060276626 (published 2006)

Assay: general procedure: hybrid (solid and solution phase) peptide synthesis; 2-Cl-Trt-Cl resin; TBTU/HOBt with diisopropylethylamine
Conditions: whole synthesis; for final purity (method not given): HPLC

Substance	final purity (method not given) (acetate, run 1)	final purity (method not given) (acetate, run 2)	final purity (method not given) (trifluoroacetate)	final HPLC purity (acetate)	final HPLC purity (pamoate)
Mpa-Har-Gly-Asp-Trp-Pro-Cys-NH2, (SEQ. ID. NO. 7) cyclic (1-7) disulfide	>95% and >99.0%	>99.0%	>98.5%	–	–
pGlu-His-Trp-Ser-Tyr-D-Ser(tBu)-Leu-Arg-Pro-HNNHCONH2	–	–	–	>99.0%	–
pGlu-His-Trp-Ser-Tyr-D-Ser(tBu)-Leu-Arg-Pro-HNEt	–	–	–	>99.0%	–
pGlu-His-Trp-Ser-Tyr-D-Trp-Leu-Arg-Pro-Gly-NH2	–	–	–	>99.0%	>99.0%

Values joined by “and” are separate entries in the source; they are usually repeats but may differ in a detail not shown here. Equal values may be shown once.
